Results from the supplement of paper PMC10849652.
The list shows a part of the results.

The chains behind the UniProt entries cited, without tags or fusion partners. Where a name states a change or a piece, a line headed by the entry shows the natural chain unless it says otherwise.
UniProt Q8WUY3: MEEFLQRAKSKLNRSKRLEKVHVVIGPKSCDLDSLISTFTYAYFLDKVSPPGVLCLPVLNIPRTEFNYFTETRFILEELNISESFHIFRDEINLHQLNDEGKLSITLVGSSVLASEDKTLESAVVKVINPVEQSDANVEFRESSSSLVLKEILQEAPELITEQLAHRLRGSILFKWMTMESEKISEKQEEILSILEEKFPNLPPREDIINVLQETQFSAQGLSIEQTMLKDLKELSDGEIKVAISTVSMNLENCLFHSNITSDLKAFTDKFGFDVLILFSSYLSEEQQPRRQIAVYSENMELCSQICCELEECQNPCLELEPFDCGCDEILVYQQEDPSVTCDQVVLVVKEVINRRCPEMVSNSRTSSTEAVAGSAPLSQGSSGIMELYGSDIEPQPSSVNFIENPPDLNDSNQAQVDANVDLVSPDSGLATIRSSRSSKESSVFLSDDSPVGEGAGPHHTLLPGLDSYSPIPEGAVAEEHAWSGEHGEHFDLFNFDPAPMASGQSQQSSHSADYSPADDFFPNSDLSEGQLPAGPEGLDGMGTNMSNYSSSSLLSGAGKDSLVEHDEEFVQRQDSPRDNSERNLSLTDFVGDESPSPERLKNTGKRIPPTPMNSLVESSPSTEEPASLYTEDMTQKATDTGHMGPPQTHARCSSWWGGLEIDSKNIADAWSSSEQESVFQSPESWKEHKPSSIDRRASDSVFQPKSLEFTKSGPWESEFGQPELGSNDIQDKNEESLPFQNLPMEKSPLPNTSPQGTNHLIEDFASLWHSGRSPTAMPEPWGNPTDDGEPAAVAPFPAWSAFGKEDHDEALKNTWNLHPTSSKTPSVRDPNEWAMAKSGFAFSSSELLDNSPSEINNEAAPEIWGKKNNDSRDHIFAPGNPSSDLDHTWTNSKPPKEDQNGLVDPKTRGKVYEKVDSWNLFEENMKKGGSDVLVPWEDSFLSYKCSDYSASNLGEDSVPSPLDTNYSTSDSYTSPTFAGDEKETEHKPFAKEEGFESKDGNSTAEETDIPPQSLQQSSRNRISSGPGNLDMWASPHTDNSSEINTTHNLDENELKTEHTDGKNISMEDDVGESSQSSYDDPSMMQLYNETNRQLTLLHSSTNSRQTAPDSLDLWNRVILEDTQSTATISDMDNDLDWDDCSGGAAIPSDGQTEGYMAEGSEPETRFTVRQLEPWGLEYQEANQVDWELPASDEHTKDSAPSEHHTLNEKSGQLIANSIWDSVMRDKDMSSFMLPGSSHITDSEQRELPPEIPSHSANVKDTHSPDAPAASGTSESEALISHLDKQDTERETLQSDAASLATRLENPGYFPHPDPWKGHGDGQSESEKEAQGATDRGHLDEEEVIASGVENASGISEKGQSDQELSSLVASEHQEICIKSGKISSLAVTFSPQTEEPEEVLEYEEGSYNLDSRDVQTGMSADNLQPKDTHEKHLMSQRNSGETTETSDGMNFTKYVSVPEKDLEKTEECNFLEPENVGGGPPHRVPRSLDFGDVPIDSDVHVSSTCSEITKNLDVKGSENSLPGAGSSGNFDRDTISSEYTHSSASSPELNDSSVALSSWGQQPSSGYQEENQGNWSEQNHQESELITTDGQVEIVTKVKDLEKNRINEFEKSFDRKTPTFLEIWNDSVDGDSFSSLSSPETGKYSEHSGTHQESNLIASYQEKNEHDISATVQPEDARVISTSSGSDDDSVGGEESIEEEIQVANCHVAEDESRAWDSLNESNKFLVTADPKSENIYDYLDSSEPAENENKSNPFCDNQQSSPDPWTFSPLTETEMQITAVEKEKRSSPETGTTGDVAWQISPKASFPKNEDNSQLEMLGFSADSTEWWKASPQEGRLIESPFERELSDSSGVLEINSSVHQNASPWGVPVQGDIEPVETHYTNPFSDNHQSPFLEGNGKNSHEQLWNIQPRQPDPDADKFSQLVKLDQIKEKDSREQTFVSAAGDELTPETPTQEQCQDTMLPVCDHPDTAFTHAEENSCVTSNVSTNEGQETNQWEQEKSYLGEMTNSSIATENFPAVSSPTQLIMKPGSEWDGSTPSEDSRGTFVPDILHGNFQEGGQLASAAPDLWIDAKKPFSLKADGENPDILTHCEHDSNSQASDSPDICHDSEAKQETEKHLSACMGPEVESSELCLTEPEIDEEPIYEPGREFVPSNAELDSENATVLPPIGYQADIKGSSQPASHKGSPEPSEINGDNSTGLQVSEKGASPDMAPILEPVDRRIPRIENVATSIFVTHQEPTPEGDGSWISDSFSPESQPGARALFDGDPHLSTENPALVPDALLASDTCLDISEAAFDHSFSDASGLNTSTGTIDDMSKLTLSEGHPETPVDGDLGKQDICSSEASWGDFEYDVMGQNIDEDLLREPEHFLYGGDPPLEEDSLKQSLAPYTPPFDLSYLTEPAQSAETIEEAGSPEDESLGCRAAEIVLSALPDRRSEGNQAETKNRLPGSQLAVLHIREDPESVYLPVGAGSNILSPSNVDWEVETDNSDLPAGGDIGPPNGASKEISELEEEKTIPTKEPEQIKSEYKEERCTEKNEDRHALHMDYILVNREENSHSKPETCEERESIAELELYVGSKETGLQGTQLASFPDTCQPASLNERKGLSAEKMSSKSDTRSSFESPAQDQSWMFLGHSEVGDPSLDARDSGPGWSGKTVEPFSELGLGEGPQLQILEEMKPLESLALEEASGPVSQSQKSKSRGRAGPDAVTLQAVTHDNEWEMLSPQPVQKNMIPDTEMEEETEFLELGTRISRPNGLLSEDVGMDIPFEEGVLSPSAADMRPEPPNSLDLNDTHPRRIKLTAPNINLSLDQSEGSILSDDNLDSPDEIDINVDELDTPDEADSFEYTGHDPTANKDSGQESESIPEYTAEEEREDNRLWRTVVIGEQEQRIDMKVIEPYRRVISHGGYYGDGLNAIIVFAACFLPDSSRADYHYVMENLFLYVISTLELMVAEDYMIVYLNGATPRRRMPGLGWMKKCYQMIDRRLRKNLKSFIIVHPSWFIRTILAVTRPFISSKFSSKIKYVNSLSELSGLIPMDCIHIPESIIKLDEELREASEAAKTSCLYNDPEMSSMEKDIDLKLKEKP
UniProt P40306: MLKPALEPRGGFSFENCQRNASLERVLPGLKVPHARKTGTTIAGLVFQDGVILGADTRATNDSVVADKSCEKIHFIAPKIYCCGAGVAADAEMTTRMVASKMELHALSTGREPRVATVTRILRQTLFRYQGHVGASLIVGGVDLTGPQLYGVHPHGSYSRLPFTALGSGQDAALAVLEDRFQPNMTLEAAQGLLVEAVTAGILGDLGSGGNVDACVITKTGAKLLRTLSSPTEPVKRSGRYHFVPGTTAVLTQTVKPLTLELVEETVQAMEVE
UniProt Q9UKA9: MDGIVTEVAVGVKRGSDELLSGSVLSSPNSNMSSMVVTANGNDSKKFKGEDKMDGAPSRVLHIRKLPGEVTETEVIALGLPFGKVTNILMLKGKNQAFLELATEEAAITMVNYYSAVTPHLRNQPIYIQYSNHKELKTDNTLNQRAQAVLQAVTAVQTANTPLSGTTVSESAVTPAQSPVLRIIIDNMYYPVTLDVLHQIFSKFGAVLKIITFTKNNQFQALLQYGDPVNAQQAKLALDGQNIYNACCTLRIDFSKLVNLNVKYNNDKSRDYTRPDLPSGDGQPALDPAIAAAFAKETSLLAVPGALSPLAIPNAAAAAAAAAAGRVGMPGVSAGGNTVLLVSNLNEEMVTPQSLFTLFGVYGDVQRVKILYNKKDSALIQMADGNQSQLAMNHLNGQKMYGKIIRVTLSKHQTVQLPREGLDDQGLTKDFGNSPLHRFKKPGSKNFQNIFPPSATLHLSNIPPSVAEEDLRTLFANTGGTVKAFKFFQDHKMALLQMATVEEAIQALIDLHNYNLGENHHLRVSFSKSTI
UniProt Q8TB72: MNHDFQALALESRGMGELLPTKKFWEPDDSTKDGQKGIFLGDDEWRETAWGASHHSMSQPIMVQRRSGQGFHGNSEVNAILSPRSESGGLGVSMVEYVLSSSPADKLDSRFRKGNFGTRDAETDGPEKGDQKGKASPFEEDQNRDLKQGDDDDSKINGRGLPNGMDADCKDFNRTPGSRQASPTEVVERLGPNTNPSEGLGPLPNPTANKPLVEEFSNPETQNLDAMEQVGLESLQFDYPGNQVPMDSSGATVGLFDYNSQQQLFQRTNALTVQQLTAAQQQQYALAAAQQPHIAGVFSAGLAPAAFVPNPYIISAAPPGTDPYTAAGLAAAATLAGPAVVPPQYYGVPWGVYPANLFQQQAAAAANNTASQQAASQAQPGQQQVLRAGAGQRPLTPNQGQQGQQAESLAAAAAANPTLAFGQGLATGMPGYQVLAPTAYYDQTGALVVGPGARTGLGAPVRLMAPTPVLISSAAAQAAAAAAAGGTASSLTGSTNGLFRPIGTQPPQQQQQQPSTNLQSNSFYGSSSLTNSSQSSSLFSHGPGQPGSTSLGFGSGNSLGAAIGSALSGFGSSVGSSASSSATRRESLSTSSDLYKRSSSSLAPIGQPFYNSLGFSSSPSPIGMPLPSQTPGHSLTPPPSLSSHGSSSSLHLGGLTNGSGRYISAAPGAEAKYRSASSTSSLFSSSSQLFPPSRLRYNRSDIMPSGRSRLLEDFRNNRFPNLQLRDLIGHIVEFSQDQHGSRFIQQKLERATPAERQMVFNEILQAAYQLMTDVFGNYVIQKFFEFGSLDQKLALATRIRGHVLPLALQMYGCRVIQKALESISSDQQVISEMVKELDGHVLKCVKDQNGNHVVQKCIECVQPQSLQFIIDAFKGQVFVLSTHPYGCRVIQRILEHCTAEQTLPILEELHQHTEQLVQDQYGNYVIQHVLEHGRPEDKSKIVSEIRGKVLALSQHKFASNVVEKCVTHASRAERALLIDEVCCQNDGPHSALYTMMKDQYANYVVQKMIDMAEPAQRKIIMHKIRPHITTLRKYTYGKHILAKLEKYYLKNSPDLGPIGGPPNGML
UniProt Q8N0Z8: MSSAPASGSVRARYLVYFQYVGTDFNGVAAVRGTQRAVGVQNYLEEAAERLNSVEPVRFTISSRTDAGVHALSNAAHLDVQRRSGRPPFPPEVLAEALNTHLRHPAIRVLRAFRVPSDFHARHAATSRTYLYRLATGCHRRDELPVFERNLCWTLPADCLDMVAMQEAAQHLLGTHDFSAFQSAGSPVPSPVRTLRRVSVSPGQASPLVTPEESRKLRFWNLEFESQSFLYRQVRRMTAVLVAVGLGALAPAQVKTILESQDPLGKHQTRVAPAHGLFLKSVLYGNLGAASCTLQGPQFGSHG
UniProt Q9ULZ3, whole entry, looked up: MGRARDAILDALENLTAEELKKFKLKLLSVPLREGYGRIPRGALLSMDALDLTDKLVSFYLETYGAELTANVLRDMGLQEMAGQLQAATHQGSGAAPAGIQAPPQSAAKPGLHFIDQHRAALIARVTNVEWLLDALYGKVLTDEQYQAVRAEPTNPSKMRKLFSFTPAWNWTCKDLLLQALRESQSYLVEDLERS

How the values were obtained:
Experiment in all cases: log2 fold change, soluble protein after heating vs DMSO (PISA); higher = thermal stabilisation; K562 cells, 10 uM, 30 min; active = over 0.2 and 3.5 SD of the protein, either way, in both replicates (recomputed)
saracatinib = compound: CN1CCN(CCOc2cc(OC3CCOCC3)c3c(Nc4c(Cl)ccc5c4OCO5)ncnc3c2)CC1 [saracatinib]
Outline: (§1)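 For each measurement, 10 μM compound was applied for 30 min to K562 cells at 2×10^6 cells/mL. Aliquots were heated for 3 min across 48°C-58°C, pooled, and extracted in PBS with 0.5% NP-40 at 4°C; the supernatant after 21,000xg for 90 min was soluble protein. This was quantified by TMTpro 16plex LC-MS/MS with channel sums equalised, and thermal stability was reported relative to control samples from duplicates, on a log2 fold-change scale.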

[1] = compound: CNC(=O)C1=CC=CC=C1NC2=NC(=NC=C2Cl)NC3=C(C=C(C=C3)N4CCOCC4)OC
Outline: as §1

defactinib = compound: CNC(=O)c1ccc(Nc2ncc(C(F)(F)F)c(NCc3nccnc3N(C)S(C)(=O)=O)n2)cc1 [defactinib]
Outline: as §1

rucaparib = compound: CNCc1ccc(-c2[nH]c3cc(F)cc4c3c2CCNC4=O)cc1 [rucaparib]
Outline: as §1

[2] = compound: CNc1nc(-c2ccc3c(N)n[nH]c3c2)cc(N2C[C@@H](C(=O)NC3CCCCC3)CC[C@H]2C)n1
Outline: as §1

encorafenib = compound: COC(=O)N[C@@H](C)CNc1nccc(-c2cn(C(C)C)nc2-c2cc(Cl)cc(NS(C)(=O)=O)c2F)n1 [encorafenib]
Outline: as §1

[3] = compound: COC(=O)[C@H](CCSC)NC(=O)C1=C(C=C(C=C1)NC[C@H](CS)N)C2=CC=CC=C2
Outline: as §1

[4] = compound: COC1=CC=C(C=C1)CN2C=CC3=C2C=C(C=C3)C(=O)NO
Outline: as §1

idasanutlin = compound: COc1cc(C(=O)O)ccc1NC(=O)[C@@H]1N[C@@H](CC(C)(C)C)[C@](C#N)(c2ccc(Cl)cc2F)[C@H]1c1cccc(Cl)c1F [idasanutlin]
Outline: as §1

alisertib = compound: COc1cc(Nc2ncc3c(n2)-c2ccc(Cl)cc2C(c2c(F)cccc2OC)=NC3)ccc1C(=O)O [alisertib]
Outline: as §1

[5] = compound: COc1cc2nc(-c3cc(F)ccc3O)nc(N[C@@H]3CNC[C@H]3C(C)(C)O)c2cc1OC
Outline: as §1

gefitinib = compound: COc1cc2ncnc(Nc3ccc(F)c(Cl)c3)c2cc1OCCCN1CCOCC1 [gefitinib]
Outline: as §1

[6] = compound: COc1cccc2cc(-c3nc([C@H]4CC[C@H](C(=O)O)CC4)n4ncnc(N)c34)[nH]c12
Outline: as §1

lapatinib = compound: CS(=O)(=O)CCNCc1ccc(-c2ccc3ncnc(Nc4ccc(OCc5cccc(F)c5)c(Cl)c4)c3c2)o1 [lapatinib]
Outline: as §1

sotrastaurin = compound: CN1CCN(c2nc(C3=C(c4c[nH]c5ccccc45)C(=O)NC3=O)c3ccccc3n2)CC1 [sotrastaurin]
Outline: as §1

filanesib = compound: CON(C)C(=O)N1N=C(c2cc(F)ccc2F)S[C@@]1(CCCN)c1ccccc1 [filanesib]
Outline: as §1

Tubastatin A = compound: CN1CCc2c(c3ccccc3n2Cc2ccc(C(=O)NO)cc2)C1 [Tubastatin A]
Outline: as §1

zotarolimus = compound: CO[C@H]1C[C@@H]2CC[C@@H](C)[C@@](O)(O2)C(=O)C(=O)N2CCCC[C@H]2C(=O)O[C@H]([C@H](C)C[C@@H]2CC[C@H](n3cnnn3)[C@H](OC)C2)CC(=O)[C@H](C)/C=C(\C)[C@@H](O)[C@@H](OC)C(=O)[C@H](C)C[C@H](C)/C=C/C=C/C=C/1C [zotarolimus]
Outline: as §1

pictilisib = compound: CS(=O)(=O)N1CCN(Cc2cc3nc(-c4cccc5[nH]ncc45)nc(N4CCOCC4)c3s2)CC1 [pictilisib]
Outline: as §1

alvocidib = compound: CN1CC[C@H](c2c(O)cc(O)c3c(=O)cc(-c4ccccc4Cl)oc23)[C@H](O)C1 [alvocidib]
Outline: as §1

Measured: log2 fold change

PRUNE2 isoform 3 (UniProt Q8WUY3)
inactive: saracatinib -0.002 | [1] -0.014 | defactinib 0.029 | rucaparib 0.398 | [2] -0.042 | encorafenib 0.028 | [3] -0.12 | [4] 0.258 | idasanutlin 0.067 | alisertib -0.107 | [5] -0.124 | gefitinib 0.15 | [6] -0.003 | lapatinib 0.22

PSMB10 (UniProt P40306)
inactive: sotrastaurin -0.066 | defactinib 0.072 | rucaparib -0.115 | encorafenib 0.094 | [3] -0.017 | filanesib 0.024 | idasanutlin -0.105 | alisertib -0.174 | [5] 0.03 | gefitinib -0.118 | [6] -0.033 | lapatinib 0.079

PSMA3 (UniProt H0YJ03)
inactive: saracatinib -0.185 | Tubastatin A 0.314 | defactinib -0.023 | rucaparib 0.151 | [2] 0.067 | encorafenib -0.142 | [3] 0.087 | [4] 0.362 | zotarolimus -0.004 | idasanutlin 0.009 | [5] 0.203 | lapatinib 0.021

PTBP2 isoform 3 (UniProt Q9UKA9)
inactive: sotrastaurin -0.059 | [1] 0.141 | [4] 0.111 | filanesib 0.106 | [5] 0.179 | lapatinib -0.052 | pictilisib -0.031

Two successive records from above, for reference:
PSMA3 (UniProt H0YJ03)
inactive: saracatinib -0.185 | Tubastatin A 0.314 | defactinib -0.023 | rucaparib 0.151 | [2] 0.067 | encorafenib -0.142 | [3] 0.087 | [4] 0.362 | zotarolimus -0.004 | idasanutlin 0.009 | [5] 0.203 | lapatinib 0.021

PTBP2 isoform 3 (UniProt Q9UKA9)
inactive: sotrastaurin -0.059 | [1] 0.141 | [4] 0.111 | filanesib 0.106 | [5] 0.179 | lapatinib -0.052 | pictilisib -0.031

(cont.)

PUM2 isoform 3 (UniProt Q8TB72)
inactive: saracatinib -0.077 | alvocidib -0.093 | [2] -0.082 | zotarolimus 0.173

PSMC1 (UniProt G3V4X1)
inactive: [1] -0.011 | zotarolimus -0.045 | [5] -0.106 | gefitinib -0.036 | lapatinib -0.105 | pictilisib -0.071

PUSL1 (UniProt Q8N0Z8)
inactive: sotrastaurin 0.047 | alvocidib 0.328 | Tubastatin A 0.036 | [1] -0.19 | rucaparib -0.105 | encorafenib 0.02 | filanesib 0.107 | zotarolimus -0.047 | alisertib 0.244 | [6] -0.082 | pictilisib 0.015

PSMA3 (UniProt G3V4X5)
inactive: defactinib 0.061 | [3] -0.208 | [4] -0.122 | [5] 0.255 | lapatinib -0.18

PYCARD isoform 2 (UniProt Q9ULZ3)
inactive: [1] -0.264 | [4] -0.596
